This test deals with T1, Vangl1 (human (endogenous in HUVEC)) (UniProt Q8TAA9).
T1 sequence: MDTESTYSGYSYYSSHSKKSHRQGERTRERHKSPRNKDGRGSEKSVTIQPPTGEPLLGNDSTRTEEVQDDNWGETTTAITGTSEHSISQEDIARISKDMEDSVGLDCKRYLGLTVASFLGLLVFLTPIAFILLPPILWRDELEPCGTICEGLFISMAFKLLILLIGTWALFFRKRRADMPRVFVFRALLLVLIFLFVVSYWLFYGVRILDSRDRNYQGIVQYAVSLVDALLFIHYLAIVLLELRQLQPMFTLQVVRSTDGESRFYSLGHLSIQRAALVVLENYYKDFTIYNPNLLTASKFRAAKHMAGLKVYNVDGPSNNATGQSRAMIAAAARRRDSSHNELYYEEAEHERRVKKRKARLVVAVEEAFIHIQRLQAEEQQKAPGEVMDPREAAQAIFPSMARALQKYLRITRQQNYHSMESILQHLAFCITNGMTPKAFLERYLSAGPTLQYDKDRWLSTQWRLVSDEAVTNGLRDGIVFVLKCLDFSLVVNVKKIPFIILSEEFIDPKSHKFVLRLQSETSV
In words: affinity purification with mass spectrometry.

Amino acid sequences for entries named in this document (tags omitted).
UniProt P35580: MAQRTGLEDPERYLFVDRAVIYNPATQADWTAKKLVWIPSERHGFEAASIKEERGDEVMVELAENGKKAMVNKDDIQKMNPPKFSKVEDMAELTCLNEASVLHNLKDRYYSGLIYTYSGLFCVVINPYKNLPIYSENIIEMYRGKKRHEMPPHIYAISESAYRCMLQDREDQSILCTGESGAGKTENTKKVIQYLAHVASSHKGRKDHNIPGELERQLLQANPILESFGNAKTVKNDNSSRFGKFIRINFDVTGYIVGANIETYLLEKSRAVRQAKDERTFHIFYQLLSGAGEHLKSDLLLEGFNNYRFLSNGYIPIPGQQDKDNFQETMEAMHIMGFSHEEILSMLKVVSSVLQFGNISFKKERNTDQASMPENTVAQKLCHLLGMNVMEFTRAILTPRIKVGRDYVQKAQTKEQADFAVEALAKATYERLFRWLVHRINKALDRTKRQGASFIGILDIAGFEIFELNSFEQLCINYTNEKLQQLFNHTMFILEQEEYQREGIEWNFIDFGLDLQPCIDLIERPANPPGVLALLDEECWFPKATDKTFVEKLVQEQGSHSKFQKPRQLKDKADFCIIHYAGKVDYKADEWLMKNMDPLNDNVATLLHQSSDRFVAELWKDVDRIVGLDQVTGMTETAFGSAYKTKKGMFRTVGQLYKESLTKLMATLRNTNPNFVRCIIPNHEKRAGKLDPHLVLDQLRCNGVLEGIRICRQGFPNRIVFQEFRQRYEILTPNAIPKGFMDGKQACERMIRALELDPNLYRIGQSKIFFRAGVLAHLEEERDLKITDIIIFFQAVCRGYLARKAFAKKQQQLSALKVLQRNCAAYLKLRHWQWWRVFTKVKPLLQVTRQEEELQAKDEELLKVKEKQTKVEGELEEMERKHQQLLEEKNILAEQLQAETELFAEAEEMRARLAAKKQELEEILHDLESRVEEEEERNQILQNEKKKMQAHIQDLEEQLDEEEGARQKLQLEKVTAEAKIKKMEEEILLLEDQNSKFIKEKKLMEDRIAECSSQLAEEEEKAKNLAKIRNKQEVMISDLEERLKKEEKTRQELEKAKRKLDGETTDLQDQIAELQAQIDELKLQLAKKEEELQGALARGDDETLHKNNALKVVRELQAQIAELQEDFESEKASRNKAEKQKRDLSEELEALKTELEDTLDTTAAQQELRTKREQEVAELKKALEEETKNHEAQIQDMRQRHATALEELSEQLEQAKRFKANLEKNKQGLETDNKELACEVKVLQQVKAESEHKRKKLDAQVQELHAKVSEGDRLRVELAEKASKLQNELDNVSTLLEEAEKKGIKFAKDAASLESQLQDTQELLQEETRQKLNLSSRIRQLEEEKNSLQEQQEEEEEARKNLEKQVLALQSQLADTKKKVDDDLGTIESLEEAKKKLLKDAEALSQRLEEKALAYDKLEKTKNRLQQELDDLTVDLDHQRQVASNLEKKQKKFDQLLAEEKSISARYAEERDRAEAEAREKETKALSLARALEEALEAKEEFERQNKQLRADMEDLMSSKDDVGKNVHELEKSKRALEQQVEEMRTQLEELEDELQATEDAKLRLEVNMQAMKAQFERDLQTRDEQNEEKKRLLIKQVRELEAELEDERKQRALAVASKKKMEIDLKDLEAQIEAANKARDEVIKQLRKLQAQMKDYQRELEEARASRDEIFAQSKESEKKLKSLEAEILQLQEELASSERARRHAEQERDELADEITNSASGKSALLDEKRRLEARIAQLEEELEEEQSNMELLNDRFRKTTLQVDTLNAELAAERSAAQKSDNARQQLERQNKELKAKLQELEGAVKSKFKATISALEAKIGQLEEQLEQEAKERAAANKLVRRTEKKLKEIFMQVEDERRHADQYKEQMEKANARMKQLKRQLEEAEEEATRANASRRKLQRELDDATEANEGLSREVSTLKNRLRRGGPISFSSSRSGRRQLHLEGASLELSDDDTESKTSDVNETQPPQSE
UniProt Q9ULV4: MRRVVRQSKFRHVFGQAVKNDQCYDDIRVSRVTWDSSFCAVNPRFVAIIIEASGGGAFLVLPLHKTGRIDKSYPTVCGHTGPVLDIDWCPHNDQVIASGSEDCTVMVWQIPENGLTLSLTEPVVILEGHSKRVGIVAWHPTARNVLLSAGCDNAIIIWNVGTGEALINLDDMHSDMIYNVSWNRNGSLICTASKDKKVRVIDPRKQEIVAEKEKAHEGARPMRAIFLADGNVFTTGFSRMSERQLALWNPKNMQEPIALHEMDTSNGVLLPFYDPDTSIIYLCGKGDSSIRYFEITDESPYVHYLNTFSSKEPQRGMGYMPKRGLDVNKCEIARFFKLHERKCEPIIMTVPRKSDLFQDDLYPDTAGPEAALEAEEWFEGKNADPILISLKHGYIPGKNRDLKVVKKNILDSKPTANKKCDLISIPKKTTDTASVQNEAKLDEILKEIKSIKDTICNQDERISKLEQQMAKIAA

Results are given in words; binding and its absence hold for the method and conditions named. Binding seen in cells or lysates may run through a third protein. A yes stands for co-enrichment or nearness to the bait. Other partners may have been found.

Our source for the binding values is doi:10.1101/2024.06.25.600357.

Take “Myosin10 (MYH10) (from UniProt P35580 1-1976)”: the binding result is reported as “binds”.

As to “Coronin1C (CORO1C) (from UniProt Q9ULV4 1-474)”, the binding entry was “binds”.
